# Patent US20230029496A1, “AMINO ACID ALTERNATIVE CURING SYSTEM” (THE TEXAS A&M UNIVERSITY SYSTEM, priority 2019, published 2023)
# Where two headings read alike, the source gives them in different places. Marks after values point to notes of the source that are not given here.
# What was measured:
# [1] = test system: aerobic mesophiles, aerobic psychrotrophs
# [2] = Percent solution pickup, pre-rigor pork semimembranosus muscle (first study); details: range across all treatments (0 mM-32 mM), raw and cooked
# [3] = Percent solution pickup, pre- and post-rigor pork semimembranosus muscle (Example 13)
structure (smiles),measurement,setting,value
N=C(N)NCCC[C@H](N)C(=O)O [L-arginine],TBA values (indicator of lipid oxidation),"3000 ppm L-arginine, Day 1",0.540
same,TBA values (indicator of lipid oxidation),"3000 ppm L-arginine, Day 7",1.000
same,TBA values (indicator of lipid oxidation),"3000 ppm L-arginine, Day 14",1.056
same,TBA values (indicator of lipid oxidation),"3000 ppm L-arginine, Day 28",1.158
same,TBA values (indicator of lipid oxidation),"4000 ppm L-arginine, Day 1",0.577
same,TBA values (indicator of lipid oxidation),"4000 ppm L-arginine, Day 7",0.745
same,TBA values (indicator of lipid oxidation),"4000 ppm L-arginine, Day 14",0.839
same,TBA values (indicator of lipid oxidation),"4000 ppm L-arginine, Day 28",0.718
same,TBA values (indicator of lipid oxidation),"5000 ppm L-arginine, Day 1",0.501
same,TBA values (indicator of lipid oxidation),"5000 ppm L-arginine, Day 7",0.773
same,TBA values (indicator of lipid oxidation),"5000 ppm L-arginine, Day 14",0.854
same,TBA values (indicator of lipid oxidation),"5000 ppm L-arginine, Day 28",0.894
same,aerobic plate count (APC),"[1]; 3000 ppm L-arginine, Day 1",3.29 Log/Colony Forming Units (CFU)/g
same,aerobic plate count (APC),"[1]; 3000 ppm L-arginine, Day 7",3.37 Log/Colony Forming Units (CFU)/g
same,aerobic plate count (APC),"[1]; 3000 ppm L-arginine, Day 14",3.54 Log/Colony Forming Units (CFU)/g
same,aerobic plate count (APC),"[1]; 3000 ppm L-arginine, Day 28",4.78 Log/Colony Forming Units (CFU)/g
same,aerobic plate count (APC),"[1]; 4000 ppm L-arginine, Day 1",2.84 Log/Colony Forming Units (CFU)/g
same,aerobic plate count (APC),"[1]; 4000 ppm L-arginine, Day 7",3.57 Log/Colony Forming Units (CFU)/g
same,aerobic plate count (APC),"[1]; 4000 ppm L-arginine, Day 14",3.36 Log/Colony Forming Units (CFU)/g
same,aerobic plate count (APC),"[1]; 4000 ppm L-arginine, Day 28",5.68 Log/Colony Forming Units (CFU)/g
same,aerobic plate count (APC),"[1]; 5000 ppm L-arginine, Day 1",2.93 Log/Colony Forming Units (CFU)/g
same,aerobic plate count (APC),"[1]; 5000 ppm L-arginine, Day 7",3.39 Log/Colony Forming Units (CFU)/g
same,aerobic plate count (APC),"[1]; 5000 ppm L-arginine, Day 14",3.46 Log/Colony Forming Units (CFU)/g
same,aerobic plate count (APC),"[1]; 5000 ppm L-arginine, Day 28",3.81 Log/Colony Forming Units (CFU)/g
same,pickup percentages,[2],24.38-28.09%
same,Sample Pickup,"[3]; 2 mM L-arginine, post rigor cooked",20.59^a %
same,Sample Pickup,"[3]; 2 mM L-arginine, post rigor raw",29.10^a %
same,Sample Pickup,"[3]; 2 mM L-arginine, pre-rigor cooked",26.75^a %
same,Sample Pickup,"[3]; 2 mM L-arginine, pre-rigor raw",22.99^a %
same,Sample Pickup,"[3]; 4 mM L-arginine, post rigor cooked",21.81^a %
same,Sample Pickup,"[3]; 4 mM L-arginine, post rigor raw",28.22^a %
same,Sample Pickup,"[3]; 4 mM L-arginine, pre-rigor cooked",27.46^a %
same,Sample Pickup,"[3]; 4 mM L-arginine, pre-rigor raw",24.21^a %
same,Sample Pickup,"[3]; 8 mM L-arginine, post rigor cooked",21.60^a %
same,Sample Pickup,"[3]; 8 mM L-arginine, post rigor raw",28.37^a %
same,Sample Pickup,"[3]; 8 mM L-arginine, pre-rigor cooked",25.56^a %
same,Sample Pickup,"[3]; 8 mM L-arginine, pre-rigor raw",20.99^a %
same,Sample Pickup,"[3]; 16 mM L-arginine, post rigor cooked",21.17^a %
same,Sample Pickup,"[3]; 16 mM L-arginine, post rigor raw",28.29^a %
same,Sample Pickup,"[3]; 16 mM L-arginine, pre-rigor cooked",29.33^a %
same,Sample Pickup,"[3]; 16 mM L-arginine, pre-rigor raw",23.04^a %
same,Sample Pickup,"[3]; 32 mM L-arginine, post rigor cooked",21.64^a %
same,Sample Pickup,"[3]; 32 mM L-arginine, post rigor raw",28.18^a %
same,Sample Pickup,"[3]; 32 mM L-arginine, pre-rigor cooked",26.55^a %
same,Sample Pickup,"[3]; 32 mM L-arginine, pre-rigor raw",24.84^a %
"O=NO [Sodium Nitrite, Sodium nitrite, reference compound]",TBA values (indicator of lipid oxidation),"156 ppm sodium nitrite, Day 1",0.456
same,TBA values (indicator of lipid oxidation),"156 ppm sodium nitrite, Day 7",0.659
same,TBA values (indicator of lipid oxidation),"156 ppm sodium nitrite, Day 14",0.701
same,TBA values (indicator of lipid oxidation),"156 ppm sodium nitrite, Day 28",0.860
same,aerobic plate count (APC),"[1]; 156 ppm sodium nitrite, Day 1",3.08 Log/Colony Forming Units (CFU)/g
same,aerobic plate count (APC),"[1]; 156 ppm sodium nitrite, Day 7",3.98 Log/Colony Forming Units (CFU)/g
same,aerobic plate count (APC),"[1]; 156 ppm sodium nitrite, Day 14",3.53 Log/Colony Forming Units (CFU)/g
same,aerobic plate count (APC),"[1]; 156 ppm sodium nitrite, Day 28",4.07 Log/Colony Forming Units (CFU)/g
